Two molecules from US20140088023A1 can be followed below.

No constants are given. Whether binding was seen depends on the method and setting. For some of these results: Binding seen in cells or lysates may run through a third protein. Some results given as binding are weak or reduced against the parent protein; the word gives no strength.

For assay [1], the target named is T1, soluble guanylyl cyclase alpha 1 (sGCα1) (UniProt Q02108).
T1 sequence (looked up): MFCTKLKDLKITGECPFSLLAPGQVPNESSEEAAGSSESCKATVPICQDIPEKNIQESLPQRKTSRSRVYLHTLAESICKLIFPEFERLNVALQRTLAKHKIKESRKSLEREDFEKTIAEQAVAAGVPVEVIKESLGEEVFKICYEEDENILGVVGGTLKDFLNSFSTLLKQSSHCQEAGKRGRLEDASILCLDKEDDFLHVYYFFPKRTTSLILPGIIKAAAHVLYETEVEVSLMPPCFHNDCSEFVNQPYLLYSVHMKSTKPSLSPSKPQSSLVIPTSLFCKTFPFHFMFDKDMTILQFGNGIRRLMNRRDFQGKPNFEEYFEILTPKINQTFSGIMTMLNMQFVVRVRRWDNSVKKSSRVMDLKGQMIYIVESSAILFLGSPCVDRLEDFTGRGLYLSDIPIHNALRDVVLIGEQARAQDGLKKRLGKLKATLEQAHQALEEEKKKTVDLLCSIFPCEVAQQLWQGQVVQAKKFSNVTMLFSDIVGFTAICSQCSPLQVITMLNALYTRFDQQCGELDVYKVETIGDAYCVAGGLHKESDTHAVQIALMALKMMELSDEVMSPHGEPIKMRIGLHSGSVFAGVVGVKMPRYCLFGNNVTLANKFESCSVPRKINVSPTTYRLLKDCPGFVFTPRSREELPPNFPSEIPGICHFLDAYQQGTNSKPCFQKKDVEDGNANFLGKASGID
Nature of the assay: competitive binding assay (format and labelled competitor not described at this place).

For assay [2], the target named is T1, soluble guanylyl cyclase alpha 1 (sGCα1). Nature of the assay: streptavidin-agarose pull-down from LNCaP whole cell extract; co-localization by immunocytochemistry is reported in the same paragraph.
The target is the same in assay [3]. The assay is described as follows: immunocytochemistry and streptavidin-agarose pull-down with Peptide A-8R-Biotin, LNCaP cells or extract (figure legend).
For assay [4] the target is unchanged. The assay is described as follows: heading of the section on the experiments done with Peptide A-8R-Biotin.

B1: Peptide TF6-8R (peptide)
peptide: TFCKAFRRRRRRRR
modifications: carboxy-terminus capped with an amide moiety (as in Table 2)
B1: in assay [1], the binding entry was “binds”.

B2: Peptide A-8R-Biotin (peptide)
peptide: TFCKAFPFHIIRRRRRRRR
modifications: Biotin tag at the C-terminus
Turning to B2, the binding result in assay [2], in assay [3] and in assay [4] was “binds” throughout.
